{"source": "patent US10849960B2", "about": "(priority 2017, dated 2020)", "key": {"OVCAR-5 cells": {"tested_on": "OVCAR-5 cells", "assay": "Chemical inhibition of Jak signaling, cytotoxicity assay", "assay_type": "cell-based, human", "details": "inhibitor 10 μM, 2 hours before", "description": "(§1) FIGS. 7A-7D: Chemical inhibition of Jak signaling. OVCAR-5 cells (FIGS. 7A-7B) or A2780 cells (FIGS. 7C-7D) were treated with either ruxolitinib or tofacitinib for 2 hours at a final concentration of 10 μm before different concentrations of IFNs, IL4-PE or the combination of each were added. Percent viability was measured after 3 days in culture.\n(§2) Cell lines were seeded at 10^4 cells/well in a 96-well plate in 100 μL of media and incubated until adherence (4 hr, 37° C., 5% CO2). Serial dilutions of IL4-PE, IFN-α2a, or IFN-γ were added and incubated for three days. IFNs were diluted using serial dilutions in cRPMI to obtain a final concentration of 200 ng/mL of both IFN-α2a or IFN-γ. For ruxolitinib and tofacitinib studies, 10 μM (final concentration) was added to the plates and incubated at 37° C. for 2 hours before IFNs or IL4-PE was added. The media was then removed, and cell viability was determined by crystal violet dye uptake in fixed, live cells. Crystal violet is a triarylmethane dye that binds to ribose type molecules such as DNA in nuclei. The dye staining is directly proportional to the cell biomass. Dye absorbance was measured at 570 nm using a spectrophotometer."}, "A2780 cells": {"tested_on": "A2780 cells", "assay": "Chemical inhibition of Jak signaling, cytotoxicity assay", "assay_type": "cell-based, human", "details": "inhibitor 10 μM, 2 hours before", "description": "as §1, §2"}}, "note": "At least one compound was matched to its structure with a doubt left."}
{"compound": "N#CC[C@H](C1CCCC1)n1cc(-c2ncnc3[nH]ccc23)cn1", "note": "[Ruxolitinib]", "values": [{"measurement": "effect on IL4-PE-mediated cell death", "setting": "OVCAR-5 cells", "value": "did not block any"}, {"measurement": "effect on IFN- and IFNs and IL4-PE-mediated cell death / IFN signaling", "setting": "OVCAR-5 cells; 20/4 and 200/40 ng/mL IFNs/IL4-PE, 3 days", "value": "blocked all"}, {"measurement": "effect on IFN signaling / IFN-mediated killing", "setting": "A2780 cells", "value": "blocking of IFN signaling"}, {"measurement": "effect on IL4-PE-mediated cell death / killing", "setting": "A2780 cells", "value": "slightly increased"}]}
